{"source": "PubChem BioAssay AID504784, Drosophila RNAi Screening Center – 2011", "aim": "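Search for regulators of lipid droplet storage in oleate-fed fly cells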 (primary screen)", "cells": "Drosophila Kc167 embryonic cells", "reagents": "long dsRNA against Drosophila genes, about 250 ng dsRNA per well", "time to read-out": "4 days", "challenge": "cells fed 400 µM oleic acid bound to BSA", "detection": "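Microscope images give a droplet-to-nucleus area ratio, taken as log and converted to a screen-wide B-score; higher values mean greater lipid storage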", "reading the numbers": "droplet/nuclear area B-score: higher = more stored lipid (overstorage)", "note": "The screen tested about 17,000 reagents; this is an unselected part of those that have a named target and a result. 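Each column is one replicate's B-score; the combined score over replicates was not deposited, so single values may mislead.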 A plus sign joins genes that one reagent is predicted to hit. Reagent sequences are not shown."}
{"Target gene": "CG15673", "amplicon": "DRSC04263", "droplet/nuclear area B-score, replicate 1": -0.0309, "droplet/nuclear area B-score, replicate 2": 0.124}
{"Target gene": "Ipp (Inositol polyphosphate 1-phosphatase)", "amplicon": "DRSC16718", "droplet/nuclear area B-score, replicate 1": 1.44, "droplet/nuclear area B-score, replicate 2": 2.69}
{"Target gene": "Caf1-55 (Chromatin assembly factor 1, p55 subunit)", "amplicon": "DRSC16596", "droplet/nuclear area B-score, replicate 1": 0.012, "droplet/nuclear area B-score, replicate 2": -0.126}
{"Target gene": "Tmem63 (Transmembrane protein 63)", "amplicon": "DRSC06063", "droplet/nuclear area B-score, replicate 1": -0.0844, "droplet/nuclear area B-score, replicate 2": -0.907}
{"Target gene": "wcy (wacky)", "amplicon": "DRSC20132", "droplet/nuclear area B-score, replicate 1": -0.312, "droplet/nuclear area B-score, replicate 2": -0.61}
{"Target gene": "CG3330", "amplicon": "DRSC15477", "droplet/nuclear area B-score, replicate 1": -1.57}
{"Target gene": "CG4598", "amplicon": "DRSC02763", "droplet/nuclear area B-score, replicate 1": -1.18, "droplet/nuclear area B-score, replicate 2": 0.496}
{"Target gene": "CG8852", "amplicon": "DRSC00719", "droplet/nuclear area B-score, replicate 1": 0.0391, "droplet/nuclear area B-score, replicate 2": -0.865}
{"Target gene": "CG13069", "amplicon": "DRSC09952", "droplet/nuclear area B-score, replicate 1": 0.445, "droplet/nuclear area B-score, replicate 2": 0.0727}
{"Target gene": "sle + CG12592", "amplicon": "DRSC21387", "droplet/nuclear area B-score, replicate 1": -0.125, "droplet/nuclear area B-score, replicate 2": -0.57}
{"Target gene": "Mettl3 (Methyltransferase like 3)", "amplicon": "DRSC15921", "droplet/nuclear area B-score, replicate 1": -0.253, "droplet/nuclear area B-score, replicate 2": -1.1}
{"Target gene": "Tctp (Translationally controlled tumor protein)", "amplicon": "DRSC15649", "droplet/nuclear area B-score, replicate 1": -0.774, "droplet/nuclear area B-score, replicate 2": 0.0697}
{"Target gene": "Hsp67Ba (Heat shock gene 67Ba)", "amplicon": "DRSC11191", "droplet/nuclear area B-score, replicate 1": -1.19, "droplet/nuclear area B-score, replicate 2": -0.665}
{"Target gene": "BaraC (Baramicin C)", "amplicon": "DRSC03885", "droplet/nuclear area B-score, replicate 1": 3.52, "droplet/nuclear area B-score, replicate 2": 0.0167}
{"Target gene": "CG1513", "amplicon": "DRSC05194", "droplet/nuclear area B-score, replicate 1": -1.13, "droplet/nuclear area B-score, replicate 2": 0.883}
{"Target gene": "CG1513", "amplicon": "DRSC06553", "droplet/nuclear area B-score, replicate 1": -0.545, "droplet/nuclear area B-score, replicate 2": -0.232}
{"Target gene": "CG1513", "amplicon": "DRSC06554", "droplet/nuclear area B-score, replicate 1": 0.561, "droplet/nuclear area B-score, replicate 2": -1.09}
